Results deposited as PubChem BioAssay AID504764 (Drosophila RNAi Screening Center, 2011)

Test: 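Knock-downs that raise or lower a Notch target reporter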 (primary screen)
Cells: Drosophila Kc167 cells
Knock-down reagent: long dsRNA against Drosophila genes
Time to read-out: about 5 days (4 days dsRNA, then 24 h after transfection)
Treatment: transfection of constitutively active membrane-tethered Notch lacking the extracellular domain, read 24 h later
Measurement: 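Firefly luciferase from an E(spl)m3 reporter with active Notch, plus control-promoter and uninduced reporter wells for normalisation; unnormalised counts, duplicate wells a and b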
Scale: induced reporter light, run 1, well a and induced reporter light, run 1, well b: higher = more light from the Notch target reporter with active Notch; control promoter light, run 1, well a and control promoter light, run 1, well b: higher = more light from the viral control promoter (cell number, transfection, viability); uninduced reporter light, run 1, well a: higher = more light from the Notch target reporter without active Notch
Call rule: 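Wells with low control signal or poorly matching duplicates excluded; duplicates averaged; per source plate, z beyond ±2 for induced/control log2 ratio or beyond ±1.8 for induced/uninduced marks a hit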
Calls: active = modifier hit (raised or lowered Notch signal); inactive = not a hit
The screen tested about 22,000 reagents; below is an unselected part of those with a known target gene and a result. Over the whole deposit, 403 (1.9%) were called active. 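Unnormalised raw counts per well; ratio z-scores behind the hit calls and whether each hit raises or lowers signal are not deposited.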 Names joined by + are all predicted targets of the reagent. Not stated in the record: the amount of reagent.

{"gene": "CG4286", "dsRNA": "DRSC04459", "induced reporter light, run 1, well a": 46855, "induced reporter light, run 1, well b": 44530, "control promoter light, run 1, well a": 57350, "control promoter light, run 1, well b": 51785, "uninduced reporter light, run 1, well a": 2125, "Outcome": "inactive"}
{"gene": "CG8372", "dsRNA": "DRSC03086", "induced reporter light, run 1, well a": 1.97e5, "induced reporter light, run 1, well b": 2.00e5, "control promoter light, run 1, well a": 1.86e5, "control promoter light, run 1, well b": 2.08e5, "uninduced reporter light, run 1, well a": 15005, "Outcome": "inactive"}
{"gene": "l(3)87Df", "dsRNA": "DRSC16982", "induced reporter light, run 1, well a": 2.45e5, "induced reporter light, run 1, well b": 2.33e5, "control promoter light, run 1, well a": 1.95e5, "control promoter light, run 1, well b": 2.08e5, "uninduced reporter light, run 1, well a": 18560, "Outcome": "inactive"}
{"gene": "spirit", "dsRNA": "DRSC18202", "induced reporter light, run 1, well a": 1.86e5, "induced reporter light, run 1, well b": 1.69e5, "control promoter light, run 1, well a": 2.36e5, "control promoter light, run 1, well b": 2.17e5, "uninduced reporter light, run 1, well a": 13865, "Outcome": "inactive"}
{"gene": "cdm", "dsRNA": "DRSC16213", "induced reporter light, run 1, well a": 2.56e5, "induced reporter light, run 1, well b": 2.56e5, "control promoter light, run 1, well a": 2.76e5, "control promoter light, run 1, well b": 3.25e5, "uninduced reporter light, run 1, well a": 16700, "Outcome": "active"}
{"gene": "CG7650", "dsRNA": "DRSC10898", "induced reporter light, run 1, well a": 1.76e5, "induced reporter light, run 1, well b": 1.52e5, "control promoter light, run 1, well a": 2.39e5, "control promoter light, run 1, well b": 1.64e5, "uninduced reporter light, run 1, well a": 6325, "Outcome": "inactive"}
{"gene": "CG15580", "dsRNA": "DRSC12266", "induced reporter light, run 1, well a": 95040, "induced reporter light, run 1, well b": 96380, "control promoter light, run 1, well a": 1.08e5, "control promoter light, run 1, well b": 72560, "uninduced reporter light, run 1, well a": 6755, "Outcome": "inactive"}
{"gene": "dtr", "dsRNA": "DRSC01847", "induced reporter light, run 1, well a": 84895, "induced reporter light, run 1, well b": 1.17e5, "control promoter light, run 1, well a": 77215, "control promoter light, run 1, well b": 86325, "uninduced reporter light, run 1, well a": 9865, "Outcome": "inactive"}
{"gene": "CG11470", "dsRNA": "DRSC14313", "induced reporter light, run 1, well a": 1.33e5, "induced reporter light, run 1, well b": 1.17e5, "control promoter light, run 1, well a": 1.98e5, "control promoter light, run 1, well b": 1.92e5, "uninduced reporter light, run 1, well a": 9665, "Outcome": "inactive"}
{"gene": "Ccp84Ad", "dsRNA": "DRSC12589", "induced reporter light, run 1, well a": 89920, "induced reporter light, run 1, well b": 62580, "control promoter light, run 1, well a": 55615, "control promoter light, run 1, well b": 45140, "uninduced reporter light, run 1, well a": 7635, "Outcome": "inactive"}
{"gene": "CG32809", "dsRNA": "DRSC18507", "induced reporter light, run 1, well a": 2.16e5, "induced reporter light, run 1, well b": 1.90e5, "control promoter light, run 1, well a": 2.94e5, "control promoter light, run 1, well b": 2.67e5, "uninduced reporter light, run 1, well a": 13840, "Outcome": "inactive"}
{"gene": "CG32809", "dsRNA": "DRSC18562", "induced reporter light, run 1, well a": 94920, "induced reporter light, run 1, well b": 92955, "control promoter light, run 1, well a": 1.69e5, "control promoter light, run 1, well b": 1.71e5, "uninduced reporter light, run 1, well a": 8850, "Outcome": "inactive"}
{"gene": "CG32809", "dsRNA": "DRSC18592", "induced reporter light, run 1, well a": 1.60e5, "induced reporter light, run 1, well b": 2.03e5, "control promoter light, run 1, well a": 2.57e5, "control promoter light, run 1, well b": 2.49e5, "uninduced reporter light, run 1, well a": 12260, "Outcome": "inactive"}
{"gene": "osa", "dsRNA": "DRSC17022", "induced reporter light, run 1, well a": 2.37e5, "induced reporter light, run 1, well b": 2.35e5, "control promoter light, run 1, well a": 2.72e5, "control promoter light, run 1, well b": 3.59e5, "uninduced reporter light, run 1, well a": 17585, "Outcome": "inactive"}
{"gene": "snoRNA:Me28S-C3420b + RpS11", "dsRNA": "DRSC07396", "induced reporter light, run 1, well a": 1.05e5, "induced reporter light, run 1, well b": 1.12e5, "control promoter light, run 1, well a": 1.78e5, "control promoter light, run 1, well b": 1.48e5, "uninduced reporter light, run 1, well a": 10690, "Outcome": "inactive"}
{"gene": "CG3281", "dsRNA": "DRSC15470", "induced reporter light, run 1, well a": 1.90e5, "induced reporter light, run 1, well b": 1.85e5, "control promoter light, run 1, well a": 1.28e5, "control promoter light, run 1, well b": 1.51e5, "uninduced reporter light, run 1, well a": 11560, "Outcome": "inactive"}
{"gene": "CG14245", "dsRNA": "DRSC14740", "induced reporter light, run 1, well a": 1.26e5, "induced reporter light, run 1, well b": 1.28e5, "control promoter light, run 1, well a": 1.83e5, "control promoter light, run 1, well b": 1.73e5, "uninduced reporter light, run 1, well a": 10335, "Outcome": "inactive"}
{"gene": "CG5886", "dsRNA": "DRSC15908", "induced reporter light, run 1, well a": 1.48e5, "induced reporter light, run 1, well b": 1.60e5, "control promoter light, run 1, well a": 2.29e5, "control promoter light, run 1, well b": 2.46e5, "uninduced reporter light, run 1, well a": 12370, "Outcome": "inactive"}
{"gene": "insc", "dsRNA": "DRSC04695", "induced reporter light, run 1, well a": 43895, "induced reporter light, run 1, well b": 45865, "control promoter light, run 1, well a": 46455, "control promoter light, run 1, well b": 37660, "uninduced reporter light, run 1, well a": 2510, "Outcome": "inactive"}
{"gene": "CG15194 (retired record)", "dsRNA": "DRSC19642", "induced reporter light, run 1, well a": 57650, "induced reporter light, run 1, well b": 63000, "control promoter light, run 1, well a": 88025, "control promoter light, run 1, well b": 95705, "uninduced reporter light, run 1, well a": 4290, "Outcome": "inactive"}
{"gene": "CG15194 (retired record)", "dsRNA": "DRSC19777", "induced reporter light, run 1, well a": 1.09e5, "induced reporter light, run 1, well b": 1.00e5, "control promoter light, run 1, well a": 2.19e5, "control promoter light, run 1, well b": 2.11e5, "uninduced reporter light, run 1, well a": 6970, "Outcome": "inactive"}
{"gene": "MFS12", "dsRNA": "DRSC07268", "induced reporter light, run 1, well a": 1.93e5, "induced reporter light, run 1, well b": 1.59e5, "control promoter light, run 1, well a": 1.64e5, "control promoter light, run 1, well b": 1.66e5, "uninduced reporter light, run 1, well a": 15080, "Outcome": "inactive"}
{"gene": "CG16826", "dsRNA": "DRSC02527", "induced reporter light, run 1, well a": 1.54e5, "induced reporter light, run 1, well b": 1.55e5, "control promoter light, run 1, well a": 1.96e5, "control promoter light, run 1, well b": 2.18e5, "uninduced reporter light, run 1, well a": 17245, "Outcome": "inactive"}
{"gene": "CG32081", "dsRNA": "DRSC09861", "induced reporter light, run 1, well a": 1.78e5, "induced reporter light, run 1, well b": 2.28e5, "control promoter light, run 1, well a": 2.72e5, "control promoter light, run 1, well b": 3.02e5, "uninduced reporter light, run 1, well a": 13960, "Outcome": "inactive"}

Copied from the entries so far (4 entries):
{"gene": "CG11470", "dsRNA": "DRSC14313", "induced reporter light, run 1, well a": 1.33e5, "induced reporter light, run 1, well b": 1.17e5, "control promoter light, run 1, well a": 1.98e5, "control promoter light, run 1, well b": 1.92e5, "uninduced reporter light, run 1, well a": 9665, "Outcome": "inactive"}
{"gene": "Ccp84Ad", "dsRNA": "DRSC12589", "induced reporter light, run 1, well a": 89920, "induced reporter light, run 1, well b": 62580, "control promoter light, run 1, well a": 55615, "control promoter light, run 1, well b": 45140, "uninduced reporter light, run 1, well a": 7635, "Outcome": "inactive"}
{"gene": "CG32809", "dsRNA": "DRSC18507", "induced reporter light, run 1, well a": 2.16e5, "induced reporter light, run 1, well b": 1.90e5, "control promoter light, run 1, well a": 2.94e5, "control promoter light, run 1, well b": 2.67e5, "uninduced reporter light, run 1, well a": 13840, "Outcome": "inactive"}
{"gene": "CG32809", "dsRNA": "DRSC18562", "induced reporter light, run 1, well a": 94920, "induced reporter light, run 1, well b": 92955, "control promoter light, run 1, well a": 1.69e5, "control promoter light, run 1, well b": 1.71e5, "uninduced reporter light, run 1, well a": 8850, "Outcome": "inactive"}
